Here are results for 50 molecules from the supplement of paper PMC7752906.

Each structure is given as a SMILES string. Structures can show the parent of a compound that is named as a salt. The list shows a part of the results. Repeats in this data set agree poorly, so a single value says little.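 About 40 Schistosoma mansoni schistosomula per well were imaged over time in bright field and compared with 0.1% DMSO wells. A drug counts as a hit if its Mahalanobis distance reaches 2.47 or more, three standard deviations above the DMSO control mean. Degeneracy is the fraction of worms scored opaque.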

For this test, the system named is Schistosoma mansoni schistosomula. Briefly: Mahalanobis distance of static-rate-frequency phenotype descriptors from DMSO controls (dimensionless); higher = stronger phenotypic change versus DMSO. The note with it: 10 µM; 72 h.
As to `O=C(O)c1cc(O)c(O)c(O)c1` [Gallic Acid], the Mahalanobis distance is inactive: 1.7.

As for `CCN(CC)C(=O)N1CCN(C)CC1` [Diethylcarbamazine], the Mahalanobis distance was inactive: 1.26.

Turning to `COc1ccc(-n2nc(CCC(=O)N(C)O)cc2-c2ccc(Cl)cc2)cc1` [Tepoxalin], the Mahalanobis distance is active: 2.58.

As for `O=P(O)(O)C(O)(Cc1cccnc1)P(=O)(O)O` [Risedronate Sodium], the Mahalanobis distance is inactive: 1.25.

As to `CC(C)(Oc1ccc(C2CC2(Cl)Cl)cc1)C(=O)O` (stereo not given) [Ciprofibrate], the Mahalanobis distance is active: 2.66.

`CC1=C(C(=O)O)N2C(=O)[C@@H](NC(=O)[C@H](N)c3ccc(O)cc3)[C@H]2SC1` [Cefadroxil]: the Mahalanobis distance is inactive: 1.51.

On to `NC(=O)C1(N2CCCCC2)CCN(CCCC(=O)c2ccc(F)cc2)CC1` [Pipamperone], for which the Mahalanobis distance is inactive: 1.61.

As to `NC(=O)c1cccnc1` [Niacinamide], the Mahalanobis distance is inactive: 2.45.

For `Nc1nccs1` [Aminothiazole], the Mahalanobis distance was inactive: 2.16.

Consider `Cn1c(=O)c2c(ncn2CC(O)CO)n(C)c1=O` (stereo not given) [Dyphylline], for which the Mahalanobis distance was inactive: 1.88.

As to `CCCc1nc(C(C)(C)O)c(C(=O)OCc2oc(=O)oc2C)n1Cc1ccc(-c2ccccc2-c2nnn[nH]2)cc1` [Olmesartan Medoxomil], the Mahalanobis distance was active: 2.53.

As to `O=C(O)CCc1nc2ccccc2[nH]1` [Procodazole], the Mahalanobis distance was inactive: 1.95.

In the case of `CC[C@]12CCCN3CCc4c(n(c5ccccc45)[C@@](O)(C(=O)OC)C1)[C@@H]32` [Vincamine], the Mahalanobis distance was inactive: 1.54.

Consider `CCC(C)(C)c1ccc(CC(C)CN2C[C@@H](C)O[C@@H](C)C2)cc1` (stereo not given in full) [Amorolfine], for which the Mahalanobis distance was active: 2.52.

For the molecule `CC(CCc1ccc(O)cc1)NCCc1ccc(O)c(O)c1` (stereo not given) [Dobutamine], the Mahalanobis distance is inactive: 1.56.

Regarding `CCN1CCC[C@H]1CNC(=O)c1cc(S(N)(=O)=O)ccc1OC` [Levosulpiride], the Mahalanobis distance was inactive: 1.62.

For the molecule `Nc1ccc(S(N)(=O)=O)cc1` [Sulfanilamide], the Mahalanobis distance was inactive: 2.21.

`O=C(O)[C@@H](S)[C@@H](S)C(=O)O` [Succimer]: the Mahalanobis distance is inactive: 1.8.

`CC(C)c1nc(CN(C)C(=O)N[C@H](C(=O)N[C@@H](Cc2ccccc2)C[C@H](O)[C@H](Cc2ccccc2)NC(=O)OCc2cncs2)C(C)C)cs1` [Ritonavir]: the Mahalanobis distance was active: 2.55.

Turning to `CC(C)[C@H]1CC[C@H](C(=O)N[C@H](Cc2ccccc2)C(=O)O)CC1` [Nateglinide], the Mahalanobis distance was inactive: 1.29.

As to `CC(=O)Oc1cccc(C(=O)O)c1OC(C)=O` [Dipyrocetyl], the Mahalanobis distance was inactive: 2.28.

Consider `CC1CCc2cc(F)cc3c(=O)c(C(=O)O)cn1c23` (stereo not given) [Flumequine], for which the Mahalanobis distance is inactive: 2.35.

For the molecule `Nc1nc(N)nc(-c2cc(Cl)ccc2Cl)n1` [Irsogladine Maleate], the Mahalanobis distance is inactive: 1.88.

For `CCN1CCCC1CNC(=O)c1cc(S(=O)(=O)CC)c(N)cc1OC` (stereo not given) [Amisulpride], the Mahalanobis distance is inactive: 1.94.

Take `S=P(N1CC1)(N1CC1)N1CC1` [Thiotepa]: the Mahalanobis distance is inactive: 1.59.

`O=C(c1ccc(OCCN2CCCCC2)cc1)c1c(-c2ccc(O)cc2)sc2cc(O)ccc12` [Raloxifene]: the Mahalanobis distance is inactive: 1.71.

Consider `CCOC(=O)C1=C(C)NC(C)=C(C(=O)OC)C1c1cccc([N+](=O)[O-])c1` (stereo not given) [Nitrendipine], for which the Mahalanobis distance was inactive: 1.78.

`CCn1cc(C(=O)O)c(=O)c2cc(F)c(N3CCNCC3)cc21` [Norfloxacin]: the Mahalanobis distance is inactive: 1.79.

In the case of `CN(C)CCC(c1ccc(Cl)cc1)c1ccccn1` (stereo not given) [Chlorpheniramine], the Mahalanobis distance was inactive: 2.41.

For the molecule `COc1cc(N)c(Cl)cc1C(=O)NC1CCN(CCCOc2ccc(F)cc2)CC1OC` (stereo not given) [Cisapride], the Mahalanobis distance was active: 2.85.

On to `CCC(=O)NCC[C@@H]1CCc2ccc3c(c21)CCO3` [Ramelteon], for which the Mahalanobis distance was inactive: 1.2.

As to `Cn1c(=O)c2c(ncn2C)n(C)c1=O` [Caffeine], the Mahalanobis distance was inactive: 1.87.

For the molecule `Cc1c(OCC(F)(F)F)ccnc1C[S+]([O-])c1nc2ccccc2[nH]1` (stereo not given) [Lansoprazole], the Mahalanobis distance was active: 2.5.

Consider `COc1ccc2cc1Oc1ccc(cc1)C[C@H]1c3c(cc4c(c3Oc3cc5c(cc3OC)CCN(C)[C@@H]5C2)OCO4)CCN1C` [cepharanthine], for which the Mahalanobis distance was inactive: 2.28.

With `O=C(O[C@@H]1C[C@@H]2C[C@H]3C[C@H](C1)N2CC3=O)c1c[nH]c2ccccc12` [Dolasetron], the Mahalanobis distance is inactive: 2.31.

As to `CC(C)(C)NC(=O)[C@@H]1CN(Cc2cccnc2)CCN1C[C@@H](O)C[C@@H](Cc1ccccc1)C(=O)N[C@H]1c2ccccc2C[C@H]1O` [Indinavir], the Mahalanobis distance is inactive: 1.68.

As for `CN(C)CC[C@@H](c1ccc(Cl)cc1)c1ccccn1` [Dexchlorpheniramine], the Mahalanobis distance is inactive: 1.51.

For `COC(=O)C(N)CS` (stereo not given) [Mecysteine Hydrochloride], the Mahalanobis distance is inactive: 1.95.

For the molecule `CC(N)C12CC3CC(CC(C3)C1)C2` (stereo not given) [Rimantadine], the Mahalanobis distance was active: 2.51.

As for `CC(N)C12CC3CC(CC(C3)C1)C2` (stereo not given) [Rimantadine Hydrochloride], the Mahalanobis distance is inactive: 2.41.

For the molecule `CN(C)CCOC(=O)COc1ccc(Cl)cc1` [Meclofenoxate], the Mahalanobis distance is inactive: 1.74.

For `Brc1c(NC2=NCCN2)ccc2nccnc12`, the Mahalanobis distance was active: 2.79.

For the molecule `OC(CCN1CCCCC1)(c1ccccc1)C1CCCCC1` (stereo not given) [Trihexyphenidyl], the Mahalanobis distance is active: 2.61.

Turning to `Cc1ccc2c(Cl)cc(Cl)c(O)c2n1` [Chlorquinaldol], the Mahalanobis distance was inactive: 1.57.

For `N=C(N)N/N=C/c1c(Cl)cccc1Cl` [Guanabenz], the Mahalanobis distance was inactive: 2.31.

For the molecule `CCCc1nc(C(C)(C)O)c(C(=O)O)n1Cc1ccc(-c2ccccc2-c2nnn[nH]2)cc1` [Olmesartan], the Mahalanobis distance was active: 4.54.

With `O=C(OCc1ccccc1)c1ccccc1` [Benzyl Benzoate], the Mahalanobis distance was active: 3.34.

As to `CC(Oc1ccccc1)C(=O)N[C@@H]1C(=O)N2[C@@H]1SC(C)(C)[C@@H]2C(=O)O` (stereo not given in full) [Phenethicillin Potassium], the Mahalanobis distance is inactive: 2.12.

In the case of `COc1ccc(-c2cc(C(F)F)nn2-c2ccc(S(N)(=O)=O)cc2)cc1F` [Deracoxib], the Mahalanobis distance was active: 2.7.

In the case of `CN(C)[C@@H]1C(O)=C(C(N)=O)C(=O)[C@@]2(O)C(O)=C3C(=O)c4c(O)ccc(Cl)c4[C@@H](O)[C@H]3C[C@@H]12` [Demeclocycline Hydrochloride], the Mahalanobis distance is inactive: 1.63.
